No constants are given. Whether binding was seen depends on the method and setting. Binding seen in cells or lysates may run through a third protein. Some entries that bind do so weakly or less than the wild type. For some of these results: Where a sequence is shown, tags or fusion partners need not be part of it. Values belong to the molecule of their own block, whether it stands above or below them.
Legend:
[1] = target: T1, fibroblast growth factor 7 (FGF7) (human) (UniProt P21781); assay: co-IP; HEK293T co-expressing FGF7, PLAC1 and the FGFR2IIIb (D1-D3)-rabbit IgG fusion; FGF7-specific IP from cell extracts, immobilized IgG as control; Western blot for FGF7, PLAC1 and FGFR2IIIb
T1 sequence: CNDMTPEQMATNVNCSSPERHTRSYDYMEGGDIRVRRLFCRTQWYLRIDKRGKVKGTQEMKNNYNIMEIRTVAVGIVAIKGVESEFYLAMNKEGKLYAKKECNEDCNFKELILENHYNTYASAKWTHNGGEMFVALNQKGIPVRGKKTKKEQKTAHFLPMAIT

[2] = target: T2, myc-tagged FGF-10 (human) (UniProt O15520); assay: co-IP; HEK293T co-transfected with PLAC1 and one of six C-terminally myc-tagged FGFs; IP with anti-myc antibody, mouse serum as control; Western blot for PLAC1
T2 sequence: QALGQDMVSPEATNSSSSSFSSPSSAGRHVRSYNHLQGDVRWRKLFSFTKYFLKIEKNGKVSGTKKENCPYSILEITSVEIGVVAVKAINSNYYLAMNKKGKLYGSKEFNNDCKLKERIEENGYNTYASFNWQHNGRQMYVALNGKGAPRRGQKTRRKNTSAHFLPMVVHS

myc-tagged FGF-3 (human) = target: T3, myc-tagged FGF-3 (human) (UniProt P11487); assay: as above
T3 sequence: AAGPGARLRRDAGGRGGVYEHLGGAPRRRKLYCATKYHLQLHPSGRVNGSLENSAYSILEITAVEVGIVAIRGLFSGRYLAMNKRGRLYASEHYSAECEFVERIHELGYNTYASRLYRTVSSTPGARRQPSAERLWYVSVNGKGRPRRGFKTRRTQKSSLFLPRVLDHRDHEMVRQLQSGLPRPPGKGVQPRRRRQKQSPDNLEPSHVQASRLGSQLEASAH

myc-tagged FGF-8 (human) = target: T4, myc-tagged FGF-8 (human) (UniProt P55075); assay: as above
T4 sequence: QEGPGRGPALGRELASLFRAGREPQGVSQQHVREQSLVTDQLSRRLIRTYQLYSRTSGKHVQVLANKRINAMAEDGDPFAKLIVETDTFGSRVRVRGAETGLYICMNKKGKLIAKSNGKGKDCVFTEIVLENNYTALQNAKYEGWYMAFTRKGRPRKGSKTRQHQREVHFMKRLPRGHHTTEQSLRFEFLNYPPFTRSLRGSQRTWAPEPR

myc-tagged FGF7 (human) = target: T5, myc-tagged FGF7 (human) (UniProt P21781); assay: as above
T5 sequence: T1 sequence

[3] = target: T1, fibroblast growth factor 7 (FGF7) (human); assay: co-IP; lysates of PLAC1 and/or FGF7-transfected HEK293T cells; IP with anti-FGF7 or anti-PLAC1 antibodies cross-linked to beads, 2 h at 4°C; corresponding IgG as control; Western blot with anti-FGF7 and anti-PLAC1

binding [1]: binds
Molecule: soluble FGFR2IIIb-IgG fusion construct containing the extracellular D1-D3 region of FGFR2IIIb (aa 22-358) (from UniProt P21802-3 22-358) (Fc fusion)

binding [2]: no binding
binding (myc-tagged FGF-3 (human)): no binding
binding (myc-tagged FGF-8 (human)): no binding
binding (myc-tagged FGF7 (human)): binds
binding [1]: binds
binding [3]: binds
B1: PLAC1 (placenta enriched 1) (protein, UniProt Q9HBJ0 23-212)
chain: QSPMTVLCSIDWFMVTVHPFMLNNDVCVHFHELHLGLGCPPNHVQPHAYQFTYRVTECGIRAKAVSQDMVIYSTEIHYSSKGTPSKFVIPVSCAAPQKSPWLTKPCSMRVASKSRATAQKDEKCYEVFSLSQSSQRPNCDCPPCVFSEEEHTQVPCHQAGAQEAQPLQPSHFLDISEDWSLHTDDMIGSM

Reference: publication PMC7244013
